# Data as given in PubChem BioAssay.
# Several values for one entry are separate records, joined by “and”; a condition that tells them apart may be missing. Equal values may be shown once. The inconclusive results got no clear call from the source; some entries with a clear call stand among them for comparison. For part of these data: Potencies beside an inconclusive call are fits to weak or partial responses and may not hold up. Activity calls are given as the source filed them. Unless noted, cut-off not given; nearly all actives show AC50 up to about 26 µM.
# Columns and labels:
# [1] = growth inhibition of DIPG glioma cells, dose response, cell-based, SU-DIPG-XVII, MIPE5.0, CellTiter-Glo, qHTS (AID 1347060); conditions: SU-DIPG-XVII viability, CellTiter-Glo ATP luminescence;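 on AC50: cells exposed to compound for 48 hours before viability readout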
# [2] = growth inhibition of DIPG glioma cells, dose response, cell-based, SU-DIPG-XIII, MIPE4.0, CellTiter-Glo, qHTS (AID 1347061; cut-off not given, nearly all actives have AC50 up to about 37 µM;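 further: cells exposed to compound for 48 hours before readout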); conditions: SU-DIPG-XIII viability, CellTiter-Glo ATP luminescence
# [3] = growth inhibition of DIPG glioma cells, dose response, cell-based, JHH-DIPG-1, MIPE4.0, CellTiter-Glo, qHTS (AID 1347062; cut-off not given, nearly all actives have AC50 up to about 27 µM;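 on AC50: cells exposed to compound for two days before readout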); conditions: JHH-DIPG-1 viability, CellTiter-Glo ATP luminescence
# [4] = growth inhibition of DIPG glioma cells, dose response, cell-based, SU-DIPG-XIII, MIPE5.0, CellTiter-Glo, qHTS (AID 1347064; cut-off not given, nearly all actives have AC50 up to about 23 µM;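 on AC50: cells exposed to compound for 48 hours before the viability read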); conditions: SU-DIPG-XIII viability, CellTiter-Glo ATP luminescence
# [5] = viability loss in pontine glioma line – cell-based, SU-DIPG-XXV, MIPE5.0, CellTiter-Glo, qHTS, dose response (AID 1347065); conditions: CellTiter-Glo ATP luminescence;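 further: cells exposed to compound for 48 hours before ATP readout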
# [6] = SU-DIPG-VI glioma cell viability, MIPE4.0 library, CellTiter-Glo luminescence, qHTS (AID 1347066; cut-off not given, nearly all actives have AC50 up to about 30 µM;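 further: cells exposed to compound for 48 hours before readout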); conditions: CellTiter-Glo ATP luminescence
# [7] = SU-DIPG-XXV glioma cell viability, MIPE5.0 library, qHTS (AID 1347068; cut-off not given, nearly all actives have IC50 up to about 30 µM;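 on IC50: cells exposed to compound for 48 hours before viability readout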)
# [8] = growth inhibition of DIPG glioma cells, dose response, cell-based, SU-DIPG-IV, MIPE4.0, CellTiter-Glo, qHTS (AID 1347063; cut-off not given, nearly all actives have AC50 up to about 30 µM;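 further: compound exposure lasted 48 hours before the viability readout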); conditions: SU-DIPG-IV viability, CellTiter-Glo ATP luminescence
# [9] = JHH-DIPG-1 glioma cell viability, MIPE5.0 library, CellTiter-Glo luminescence, qHTS (AID 1347067); conditions: JHH-DIPG-1 glioma viability, CellTiter-Glo ATP luminescence;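 further: cells exposed to compound for 48 hours before readout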
# [10] = inhibitors of polyQ aggregate elongation, biochemical, solid-phase synthetic aggregates, QA3 (AID 1585; call rule not given here); conditions: biotin-polyQ incorporation, at 100 µM, stronger effect = higher value
# [11] = polyglutamine aggregation reduction, turbidity readout, qthio, single concentration 25 µM screen (AID 1588; call rule not given here); conditions: at 25 µM, stronger effect = lower value
# [12] = protection of motor neurons from glutamate death, cell-based, TUNEL DNA degradation staining, MNGlu (AID 1594; call rule not given here); conditions: glutamate-induced death, at 1 µM, stronger effect = higher value
# [13] = enhancers of SMN2 over SMN1 splicing, cell-based, SMN2/SMN1 luciferase reporters (AID 1598; call rule not given here); conditions: SMN2 vs SMN1 luciferase splicing reporter cells; at 10 µM; stronger effect = higher value
smiles,measurement,setting,value
COC(=O)N[C@H](C(=O)N1CCC[C@H]1c1ncc(-c2ccc(-c3ccc(-c4cnc([C@@H]5CCCN5C(=O)[C@@H](NC(=O)OC)C(C)C)[nH]4)cc3)cc2)[nH]1)C(C)C,AC50,[1],inconclusive: 0.0934 µM [cytotoxic]
same,outcome,[2],inactive
same,outcome,[3],inactive
same,AC50,[4],inconclusive: 37.2 µM [cytotoxic]
same,AC50,[5],inconclusive: 37.2 µM [cytotoxic]
same,AC50,[6],inconclusive: 26.4 µM [cytotoxic]
same,IC50,[7],inconclusive: 37.2 µM [cytotoxic]
CC[C@H](Nc1ncnc2nc[nH]c12)c1nc2cccc(F)c2c(=O)n1-c1ccccc1,AC50,[1],inconclusive: 11.8 µM [cytotoxic]
same,AC50,[2],inconclusive: 7.43 µM [cytotoxic]
same,AC50,[3],inconclusive: 16.6 µM [cytotoxic]
same,outcome,[4],inactive
same,AC50,[5],inconclusive: 13.2 µM [cytotoxic]
same,AC50,[6],inconclusive: 5.26 µM [cytotoxic]
COc1cccc2c1C(=O)c1c(O)c3c(c(O)c1C2=O)C[C@@](O)(C(=O)CO)C[C@@H]3O[C@H]1C[C@H](N)[C@H](OC2CCCCO2)[C@H](C)O1 (stereo not given in full),AC50,[1],active: 417 nM and active: 332 nM
same,AC50,[2],inconclusive: 26.4 µM [cytotoxic]
same,AC50,[3],active: 16.6 µM
same,AC50,[8],inconclusive: 1.48 µM [cytotoxic]
same,AC50,[6],inconclusive: 18.7 µM [cytotoxic]
same,IC50,[7],active: 6.61 µM and active: 9.34 µM
CC(C)=CC[C@@H](O)C1=CC(=O)c2c(O)ccc(O)c2C1=O,AC50,[1],active: 20.9 µM
same,AC50,[2],inconclusive: 2.64 µM [cytotoxic]
same,AC50,[3],active: 0.526 µM
same,AC50,[4],active: 11.8 µM
same,AC50,[5],active: 10.5 µM
same,AC50,[6],active: 2.96 µM
same,AC50,[9],inconclusive: 11.8 µM [cytotoxic]
same,IC50,[7],inconclusive: 29.5 µM [cytotoxic]
CC1(O)CC(c2nc(-c3ccc4ccc(-c5ccccc5)nc4c3)c3c(N)nccn23)C1 (stereo not given),AC50,[1],inconclusive: 14.8 µM [cytotoxic]
same,AC50,[2],inconclusive: 1.87 µM [cytotoxic]
same,AC50,[3],active: 1.48 µM
same,AC50,[4],active: 0.59 µM
same,AC50,[5],active: 0.332 µM
same,AC50,[6],active: 0.332 µM
CC[C@H](CO)Nc1nc(NCc2ccccc2)c2ncn(C(C)C)c2n1,AC50,[1],active: 20.9 µM
same,AC50,[2],active: 16.6 µM
same,AC50,[3],active: 26.4 µM
same,AC50,[4],inconclusive: 37.2 µM [cytotoxic]
same,AC50,[5],inconclusive: 37.2 µM [cytotoxic]
same,AC50,[6],inconclusive: 13.2 µM [cytotoxic]
same,AC50,[9],inconclusive: 26.3 µM [cytotoxic]
same,IC50,[7],inconclusive: 26.3 µM [cytotoxic]
CCCCCCCCCCCC1=C(O)C(=O)C=C(O)C1=O,AC50,[1],inconclusive: 16.6 µM [cytotoxic]
same,outcome,[2],inactive
same,AC50,[3],inconclusive: 0.0332 µM [cytotoxic]
same,AC50,[4],inconclusive: 13.2 µM [cytotoxic]
same,outcome,[5],inconclusive
same,AC50,[6],inconclusive: 23.5 µM [cytotoxic]
same,AC50,[9],inconclusive: 20.9 µM [cytotoxic]
same,outcome,[7],inactive
O=C(O)c1cn(C2CC2)c2cc(N3CCNCC3)c(F)cc2c1=O,inhibition,[10],inconclusive: -2.89%
same,aggregation (% of control),[11],inconclusive: 108%
same,protection,[12],inconclusive: 2%
same,SMN2/SMN1 luciferase ratio,[13],inconclusive: 1.08
same,outcome,[1],inactive
same,outcome,[2],inactive
same,outcome,[3],inactive
same,AC50,[8],inconclusive: 0.00118 µM
same,outcome,[7],inactive
COc1ccc([C@@H]2CC(=O)c3c(O)cc(O[C@@H]4O[C@H](CO[C@@H]5O[C@@H](C)[C@H](O)[C@@H](O)[C@H]5O)[C@@H](O)[C@H](O)[C@H]4O)cc3O2)cc1O,outcome,[1],inactive
same,AC50,[2],active: 14.8 µM and inconclusive: 2.35 µM
same,AC50,[3],inconclusive: 13.2 nM [cytotoxic] and inconclusive: 235 nM
same,outcome,[4],inactive
same,outcome,[5],inactive
same,AC50,[6],inconclusive: 23.5 µM
same,outcome,[6],inactive
same,outcome,[7],inactive
Cc1cccc(-c2nn(C(=S)Nc3ccccc3)cc2-c2ccnc3ccccc23)n1,AC50,[1],inconclusive: 0.0661 µM
same,AC50,[2],inconclusive: 16.6 µM [cytotoxic]
same,outcome,[3],inactive
same,outcome,[4],inactive
same,outcome,[5],inactive
OCCNC1CCCc2c1[nH]c1ccc(-c3ccccc3)cc21 (stereo not given),AC50,[1],active: 18.6 µM
same,AC50,[2],inconclusive: 33.2 µM [cytotoxic]
same,AC50,[3],active: 26.4 µM
same,AC50,[4],active: 13.2 µM
same,AC50,[5],active: 10.5 µM
same,AC50,[6],inconclusive: 37.2 µM [cytotoxic]
same,IC50,[7],inconclusive: 37.2 µM [cytotoxic]
CC(C)N(CCCNC(=O)Nc1ccc(C(C)(C)C)cc1)C[C@H]1O[C@@H](n2cc(Br)c3c(N)ncnc32)[C@H](O)[C@@H]1O,AC50,[1],inconclusive: 11.8 µM [cytotoxic]
same,AC50,[2],inconclusive: 20.9 µM [cytotoxic]
same,AC50,[3],inconclusive: 33.2 µM [cytotoxic]
same,AC50,[4],inconclusive: 29.5 µM [cytotoxic]
same,AC50,[5],inconclusive: 37.2 µM [cytotoxic]
same,AC50,[6],inconclusive: 18.7 µM [cytotoxic]
same,AC50,[9],inconclusive: 18.6 µM [cytotoxic]
c1ccc(-c2oc3ncnc(NC[C@@H]4CCCO4)c3c2-c2ccccc2)cc1,AC50,[1],inconclusive: 7.42 µM [cytotoxic]
same,AC50,[2],inconclusive: 14.8 µM [cytotoxic]
same,AC50,[3],inconclusive: 18.7 µM [cytotoxic]
same,AC50,[4],inconclusive: 0.00148 µM
same,AC50,[5],inconclusive: 18.6 µM [cytotoxic]
same,AC50,[9],inconclusive: 18.6 µM [cytotoxic]
Nc1nc(N)c2nc(-c3cccc(O)c3)c(-c3cccc(O)c3)nc2n1,outcome,[1],inactive
same,AC50,[2],inconclusive: 16.6 µM [cytotoxic]
same,AC50,[3],active: 14.8 µM
same,outcome,[4],inactive
same,outcome,[5],inactive
same,AC50,[6],inconclusive: 14.8 µM [cytotoxic]
COc1c(Cl)cc2c([nH]c3cnccc32)c1NC(=O)c1cccnc1C,AC50,[1],inconclusive: 33.2 µM [cytotoxic]
same,AC50,[2],inconclusive: 2.09 µM [cytotoxic]
same,AC50,[3],inconclusive: 8.33 µM [cytotoxic]
same,AC50,[4],inconclusive: 23.5 µM [cytotoxic]
same,AC50,[5],inconclusive: 23.5 µM [cytotoxic]
same,AC50,[6],inconclusive: 0.0148 µM [cytotoxic]
same,AC50,[9],inconclusive: 2.35 µM [cytotoxic]
same,IC50,[7],inconclusive: 26.3 µM
O=c1c(O)c(-c2ccc(O)c(O)c2)oc2cc(O)ccc12,AC50,[1],inconclusive: 37.2 µM [cytotoxic]
same,AC50,[2],inconclusive: 18.7 µM [cytotoxic]
same,AC50,[3],inconclusive: 33.2 µM [cytotoxic]
same,AC50,[4],inconclusive: 16.6 µM [cytotoxic]
same,AC50,[5],inconclusive: 0.00105 µM [cytotoxic]
same,AC50,[6],active: 29.6 µM
same,AC50,[9],inconclusive: 29.5 µM [cytotoxic]
same,IC50,[7],inconclusive: 16.6 µM
Nc1nc2[nH]cc(CCc3ccc(C(=O)N[C@@H](CCC(=O)O)C(=O)O)cc3)c2c(=O)[nH]1,AC50,[1],inconclusive: 37.2 µM [cytotoxic]
same,outcome,[2],inactive
same,outcome,[3],inactive
same,AC50,[4],inconclusive: 0.468 µM [cytotoxic]
same,AC50,[5],inconclusive: 0.00118 µM [cytotoxic]
same,outcome,[6],inactive
NC(=O)c1cccc(-c2cc(Nc3ccc(OC(F)(F)F)cc3)ncn2)c1,AC50,[1],inconclusive: 26.3 µM [cytotoxic]
same,AC50,[2],inconclusive: 20.9 µM [cytotoxic]
same,AC50,[3],inconclusive: 37.2 µM [cytotoxic]
same,AC50,[8],inconclusive: 20.9 µM [cytotoxic]
same,outcome,[6],inactive
same,IC50,[7],active: 18.6 µM
Cc1cnc(-c2cc(N3CCN(C(=O)CCS(C)(=O)=O)CC3)ncc2Cl)c(C)c1,outcome,[1],inactive
same,outcome,[2],inactive
same,AC50,[3],inconclusive: 5.9 µM
same,outcome,[4],inactive
same,outcome,[5],inactive
same,outcome,[9],inactive
Cc1cc(C(C)(C)C)c(O)c(C)c1CC1=NCCN1,inhibition,[10],inconclusive: -11.7%
same,aggregation (% of control),[11],inconclusive: 114%
same,SMN2/SMN1 luciferase ratio,[13],inconclusive: 1.04
same,outcome,[1],inactive
same,outcome,[2],inactive
same,AC50,[3],inconclusive: 0.00118 µM
same,outcome,[8],inactive
same,outcome,[9],inactive
same,outcome,[7],inactive
Clc1ccc(C(Cn2ccnc2)OCc2ccc(Sc3ccccc3)cc2)c(Cl)c1 (stereo not given),AC50,[1],active: 20.9 µM
same,AC50,[2],inconclusive: 37.2 µM [cytotoxic]
same,AC50,[3],inconclusive: 23.5 µM [cytotoxic]
same,AC50,[4],active: 20.9 µM
same,AC50,[5],inconclusive: 37.2 µM [cytotoxic]
same,AC50,[6],inconclusive: 37.2 µM [cytotoxic]
same,AC50,[9],inconclusive: 26.3 µM [cytotoxic]
same,IC50,[7],inconclusive: 26.3 µM [cytotoxic]
O=C(CCc1ccc(O)cc1)c1c(O)cc(O)cc1O[C@@H]1O[C@H](CO)[C@@H](O)[C@H](O)[C@H]1O,AC50,[1],inconclusive: 37.2 µM [cytotoxic]
same,outcome,[2],inactive
same,outcome,[3],inactive
same,outcome,[4],inactive
same,outcome,[5],inactive
same,outcome,[6],inactive
same,AC50,[9],inconclusive: 0.00148 µM
CCC[C@H](Nc1nc(-c2ccc(NC(=O)NCC)c(OC)c2)ncc1C)c1cccnc1,AC50,[1],active: 0.132 µM
same,AC50,[2],inconclusive: 0.0743 µM [cytotoxic]
same,AC50,[3],active: 0.0148 µM
same,AC50,[8],inconclusive: 0.00372 µM [cytotoxic]
same,AC50,[6],inconclusive: 0.469 µM [cytotoxic]
same,IC50,[7],inconclusive: 0.0468 µM [cytotoxic]
COCCCOc1ccnc(CS(=O)c2nc3ccccc3[nH]2)c1C (stereo not given),outcome,[1],inactive
same,outcome,[2],inactive
same,outcome,[3],inactive
same,AC50,[4],inconclusive: 0.0295 µM [cytotoxic]
same,outcome,[5],inactive
same,outcome,[6],inactive
same,AC50,[9],inconclusive: 16.6 µM [cytotoxic]
C=CC[C@@H]1/C=C(\C)C[C@H](C)C[C@H](OC)[C@H]2O[C@@](O)(C(=O)C(=O)N3CCCC[C@H]3C(=O)O[C@H](/C(C)=C/[C@@H]3CC[C@@H](O)[C@H](OC)C3)[C@H](C)[C@@H](O)CC1=O)[C@H](C)C[C@@H]2OC,inhibition,[10],inconclusive: 14.5%
same,aggregation (% of control),[11],inconclusive: 103%
same,protection,[12],inconclusive: 8%
same,SMN2/SMN1 luciferase ratio,[13],inconclusive: 1.03
same,AC50,[1],inconclusive: 26.3 µM [cytotoxic]
same,AC50,[2],active: 23.5 µM
same,AC50,[3],inconclusive: 3.32 µM [cytotoxic]
same,AC50,[4],inconclusive: 37.2 µM [cytotoxic]
same,AC50,[5],active: 20.9 µM
same,AC50,[6],inconclusive: 2.09 µM [cytotoxic]
same,AC50,[9],inconclusive: 33.2 µM [cytotoxic]
same,IC50,[7],inconclusive: 0.0661 µM [cytotoxic]
